The source of these data is paper doi:10.1101/754457.

Like-named read-outs stand apart in the source and are kept apart here. These are yes or no findings as the source states them, for the method shown. For some of these results: Binding seen in cells or lysates may run through a third protein. Some results given as binding are weak or reduced against the parent protein; the word gives no strength. For some of these results: Tags and fused reporters may be left off the sequences shown.

Experiment [1] deals with T1, 6xHis-TEV-Mto1[bonsai] (Mto1 residues 131-549) (S. pombe) (UniProt O94488).
T1 sequence: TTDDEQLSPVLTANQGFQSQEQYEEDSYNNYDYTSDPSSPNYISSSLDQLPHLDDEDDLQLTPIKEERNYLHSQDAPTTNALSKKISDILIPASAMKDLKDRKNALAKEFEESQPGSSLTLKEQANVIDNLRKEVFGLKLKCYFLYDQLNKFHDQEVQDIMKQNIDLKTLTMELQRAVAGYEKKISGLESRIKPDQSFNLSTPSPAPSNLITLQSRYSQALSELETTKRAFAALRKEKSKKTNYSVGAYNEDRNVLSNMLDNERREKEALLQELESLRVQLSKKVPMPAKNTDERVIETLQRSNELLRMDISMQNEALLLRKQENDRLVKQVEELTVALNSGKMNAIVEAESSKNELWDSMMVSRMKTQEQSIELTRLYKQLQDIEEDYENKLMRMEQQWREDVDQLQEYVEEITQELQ
Put plainly: pull-down.

Experiment [2] concerns the target T1, 6xHis-TEV-Mto1[bonsai] (Mto1 residues 131-549) (S. pombe). Put plainly: cross-linking.
The target of experiment [3] is T2, Mto1[bonsai]-GFP (S. pombe) (UniProt O94488).
T2 sequence: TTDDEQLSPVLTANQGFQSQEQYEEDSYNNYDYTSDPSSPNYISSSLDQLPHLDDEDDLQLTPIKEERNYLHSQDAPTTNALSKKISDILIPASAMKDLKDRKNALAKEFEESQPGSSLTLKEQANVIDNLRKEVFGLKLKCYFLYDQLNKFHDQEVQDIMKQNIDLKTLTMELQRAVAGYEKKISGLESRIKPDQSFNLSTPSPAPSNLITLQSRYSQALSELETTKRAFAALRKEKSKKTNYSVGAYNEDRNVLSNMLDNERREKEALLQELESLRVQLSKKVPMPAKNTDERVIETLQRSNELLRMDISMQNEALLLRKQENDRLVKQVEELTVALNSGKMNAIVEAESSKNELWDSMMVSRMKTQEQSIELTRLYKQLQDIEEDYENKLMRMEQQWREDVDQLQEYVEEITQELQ
Put plainly: co-IP.

Experiment [4] deals with T3, GST-6xHis-TEV-Mto1[bonsai] (S. pombe) (UniProt O94488).
T3 sequence: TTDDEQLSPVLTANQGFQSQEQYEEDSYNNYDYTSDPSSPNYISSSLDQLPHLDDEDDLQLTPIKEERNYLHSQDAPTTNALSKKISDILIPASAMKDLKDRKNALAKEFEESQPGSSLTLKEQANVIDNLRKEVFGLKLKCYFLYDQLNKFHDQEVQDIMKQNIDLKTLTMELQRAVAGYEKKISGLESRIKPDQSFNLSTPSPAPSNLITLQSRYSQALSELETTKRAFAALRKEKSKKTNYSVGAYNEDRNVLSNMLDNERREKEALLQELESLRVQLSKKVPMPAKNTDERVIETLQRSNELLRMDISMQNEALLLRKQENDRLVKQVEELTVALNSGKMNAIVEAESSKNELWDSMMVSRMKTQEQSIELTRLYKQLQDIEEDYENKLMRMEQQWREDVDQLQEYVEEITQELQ
The experiment is described as follows: pull-down.

For experiment [5], the target named is Mto2 Near-N-terminal Domain (NND; Mto2 residues 78-153) (S. pombe) (UniProt Q9USP7). Put plainly: SEC.
The target of experiment [6] is T2, Mto1[bonsai]-GFP (S. pombe). The experiment is described as follows: co-IP. The source holds these as a separate data set.

B1: Mto2, untagged, co-expressed with 6xHis-Mto1[bonsai] (protein, UniProt Q9USP7 1-397)
chain: MSEHNYQSDREVAEDPFLNYEASANQLSSNSRESTPRGSPWRAGMRSASLMTEPLEDSMYSDNNYLDNGVSFTKDENPLYSPSWPSLADANVNSMKSNNAIQEHKAAKFVSEKSLEKVSTADNNLVLQELENLRERLNQVELQLSERPSSYLGYHNNLSPYRSPNSYPSLLPSTHSPHSPAPLSTMQTALMRLRTYHPSPIILKPVEQAVNHAITLVNTSPSSVVDALCRSLAELCLGLVQEAIDASILSQQESSNSLDLVRHTPPLNYTSSVDSSPQRMASDSYGRPSLHLNDPFPSVDLQSNELSHHNVRTTLFSDDSRFHSKIHTHSTPPSQMYSAASHFRYRSDPSTRHVSNSTNKSSLHPSPTSLRVAHPIIPQRASPASQSFPSLQDTPSP
With B1, the binding result in experiment [1] and in experiment [2] was “binds” in each case.

B2: Mto2, wild type, in S. pombe (mto2+) (protein, UniProt Q9USP7 1-397)
chain: MSEHNYQSDREVAEDPFLNYEASANQLSSNSRESTPRGSPWRAGMRSASLMTEPLEDSMYSDNNYLDNGVSFTKDENPLYSPSWPSLADANVNSMKSNNAIQEHKAAKFVSEKSLEKVSTADNNLVLQELENLRERLNQVELQLSERPSSYLGYHNNLSPYRSPNSYPSLLPSTHSPHSPAPLSTMQTALMRLRTYHPSPIILKPVEQAVNHAITLVNTSPSSVVDALCRSLAELCLGLVQEAIDASILSQQESSNSLDLVRHTPPLNYTSSVDSSPQRMASDSYGRPSLHLNDPFPSVDLQSNELSHHNVRTTLFSDDSRFHSKIHTHSTPPSQMYSAASHFRYRSDPSTRHVSNSTNKSSLHPSPTSLRVAHPIIPQRASPASQSFPSLQDTPSP
For the molecule B2, the binding entry in experiment [3] is reported as “binds”.

B3: 6xHis-tagged Mto2 (protein, UniProt Q9USP7 1-397)
chain: MSEHNYQSDREVAEDPFLNYEASANQLSSNSRESTPRGSPWRAGMRSASLMTEPLEDSMYSDNNYLDNGVSFTKDENPLYSPSWPSLADANVNSMKSNNAIQEHKAAKFVSEKSLEKVSTADNNLVLQELENLRERLNQVELQLSERPSSYLGYHNNLSPYRSPNSYPSLLPSTHSPHSPAPLSTMQTALMRLRTYHPSPIILKPVEQAVNHAITLVNTSPSSVVDALCRSLAELCLGLVQEAIDASILSQQESSNSLDLVRHTPPLNYTSSVDSSPQRMASDSYGRPSLHLNDPFPSVDLQSNELSHHNVRTTLFSDDSRFHSKIHTHSTPPSQMYSAASHFRYRSDPSTRHVSNSTNKSSLHPSPTSLRVAHPIIPQRASPASQSFPSLQDTPSP
In the case of B3, the binding result in experiment [4] was “binds”.

B4: Mto2[44-397] (domain or fragment, UniProt Q9USP7 44-397)
chain: GMRSASLMTEPLEDSMYSDNNYLDNGVSFTKDENPLYSPSWPSLADANVNSMKSNNAIQEHKAAKFVSEKSLEKVSTADNNLVLQELENLRERLNQVELQLSERPSSYLGYHNNLSPYRSPNSYPSLLPSTHSPHSPAPLSTMQTALMRLRTYHPSPIILKPVEQAVNHAITLVNTSPSSVVDALCRSLAELCLGLVQEAIDASILSQQESSNSLDLVRHTPPLNYTSSVDSSPQRMASDSYGRPSLHLNDPFPSVDLQSNELSHHNVRTTLFSDDSRFHSKIHTHSTPPSQMYSAASHFRYRSDPSTRHVSNSTNKSSLHPSPTSLRVAHPIIPQRASPASQSFPSLQDTPSP
On to B4, for which the binding result in experiment [4] is reported as “binds”.

B5: Mto2 Near-N-terminal Domain (NND; Mto2 residues 78-153) (domain or fragment, UniProt Q9USP7 78-153)
chain: PLYSPSWPSLADANVNSMKSNNAIQEHKAAKFVSEKSLEKVSTADNNLVLQELENLRERLNQVELQLSERPSSYLG
In the case of B5, the binding entry in experiment [5] is on record as “binds weakly”.

B6: γ-tubulin (Gtb1) (protein, UniProt P25295 1-446)
chain: MGREIITLQAGQCGNQIGSQFWQQLCLEHGIGPDGTLESFATEGVDRKDVFFYQSDDTRYIPRAILIDLEPRVVNNILSDTYGSLYNPENILITKNGGGAGNNWANGYSHAERIFEDIMDMIDREADGSDSLEGFSLLHSIAGGTGSGLGSFLLERLNDRYPKKIIQTYSVFPNSQSVSDVVVQPYNSLLALKRLTLNADSVVVLDNAALAHIAADRLHTQNPTFHQQNQLVSTVMSASTTTLRYPGYMNNDLVSIIASLIPSPRCHFLLTSYTPFTNQQVEEAKAIRKTTVLDVMRRLLLPKNQMVSVNPSKKSCFISILDIIQGEADPADVHKSLLRIRERRYASFIPWGPASIQVALSKKSPYIKTNHRVSGLMLANHTSIASLFKRTLDQYDRLRKRNAFLEQYKKEAIFEDDLNEFDSSRDVVADLINEYEACEDPNYLSL
Regarding B6, the binding entry in experiment [6] is given as “binds weakly”; in experiment [3], “binds”.

B7: Mto2[1-319] (domain or fragment, UniProt Q9USP7 1-319)
chain: MSEHNYQSDREVAEDPFLNYEASANQLSSNSRESTPRGSPWRAGMRSASLMTEPLEDSMYSDNNYLDNGVSFTKDENPLYSPSWPSLADANVNSMKSNNAIQEHKAAKFVSEKSLEKVSTADNNLVLQELENLRERLNQVELQLSERPSSYLGYHNNLSPYRSPNSYPSLLPSTHSPHSPAPLSTMQTALMRLRTYHPSPIILKPVEQAVNHAITLVNTSPSSVVDALCRSLAELCLGLVQEAIDASILSQQESSNSLDLVRHTPPLNYTSSVDSSPQRMASDSYGRPSLHLNDPFPSVDLQSNELSHHNVRTTLFSDD
As to B7, the binding entry in experiment [4] was “binds weakly”.

B8: Mto2[1-350] (domain or fragment, UniProt Q9USP7 1-350)
chain: MSEHNYQSDREVAEDPFLNYEASANQLSSNSRESTPRGSPWRAGMRSASLMTEPLEDSMYSDNNYLDNGVSFTKDENPLYSPSWPSLADANVNSMKSNNAIQEHKAAKFVSEKSLEKVSTADNNLVLQELENLRERLNQVELQLSERPSSYLGYHNNLSPYRSPNSYPSLLPSTHSPHSPAPLSTMQTALMRLRTYHPSPIILKPVEQAVNHAITLVNTSPSSVVDALCRSLAELCLGLVQEAIDASILSQQESSNSLDLVRHTPPLNYTSSVDSSPQRMASDSYGRPSLHLNDPFPSVDLQSNELSHHNVRTTLFSDDSRFHSKIHTHSTPPSQMYSAASHFRYRSDPS
With B8, the binding result in experiment [4] is recorded as “binds”.
